Values from PubChem BioAssay AID1259260 (Sanger Institute, 2017)

Assay: 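Kinome knock-down with three anchor drugs to find synergy partners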 (primary screen)
Cells: human NCI-H716 colorectal cancer cells
Reagents: siRNA pool against human genes
Conditions: anchor drugs BYL719 (alpelisib) 1 µM, cetuximab 5 µg/ml or trametinib 10 nM, each at a dose chosen to harm viability only mildly; DMSO vehicle for the knock-down-alone arm
Detection: 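Mean viability over replicates against non-targeting siRNA, robust z-score without drug, and per-drug synergy comparing combined with single treatments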
Reading the numbers: viability robust z-score, siRNA alone: higher = more surviving cells; below -3 called essential; viability vs control, no drug: higher = more surviving cells
Active means: 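Essential when the robust z-score for knock-down alone falls below -3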
Calls: active = essential (knock-down alone lowers viability); inactive = no essential effect
Shown is a random part of 794 reagents. 13 of all reagents (1.6%) were called active. 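Calls reflect only knock-down without drug; synergy above 0.15 was grouped apart and does not change the call.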 Unmarked entries are inactive. No viability above 1 is reported: the scale is capped. Not all columns of the deposit are shown. The record does not give: the amount of reagent, the time to read-out.

With knock-down of ABL1, the record shows viability robust z-score, siRNA alone 0.602; viability vs control, no drug (fraction of control) = 1.
MPP3 scored viability robust z-score, siRNA alone 0.52; viability vs control, no drug (fraction of control) = 0.991.
With knock-down of PI4KA, the screen gave viability robust z-score, siRNA alone 0.147; viability vs control, no drug (fraction of control) = 0.953.
For NTRK2 the deposit lists viability robust z-score, siRNA alone 0.602; viability vs control, no drug (fraction of control) = 1.
Knock-down of CAMKV resulted in: viability robust z-score, siRNA alone -1.78; viability vs control, no drug (fraction of control) = 0.752.
With knock-down of CAMKK1 the results were viability robust z-score, siRNA alone 0.454; viability vs control, no drug (fraction of control) = 0.985.
Knock-down of PRKDC came out at: viability robust z-score, siRNA alone -0.722; viability vs control, no drug (fraction of control) = 0.862.
POMK gave viability robust z-score, siRNA alone 0.602; viability vs control, no drug (fraction of control) = 1.
After knock-down of STK35, the screen gave viability robust z-score, siRNA alone 0.602; viability vs control, no drug (fraction of control) = 1.
Depletion of NUAK1 resulted in: viability robust z-score, siRNA alone 0.602; viability vs control, no drug (fraction of control) = 1.

In a second layout: results already given
gene symbol,"viability robust z-score, siRNA alone","viability vs control, no drug (fraction of control)"
NTRK2,0.602,1
CAMKV,-1.78,0.752
CAMKK1,0.454,0.985

Next results:
STK31 gave viability robust z-score, siRNA alone -0.192; viability vs control, no drug (fraction of control) = 0.917.
After knock-down of TTK the results were viability robust z-score, siRNA alone -1.08; viability vs control, no drug (fraction of control) = 0.825.
NLK scored viability robust z-score, siRNA alone -0.25; viability vs control, no drug (fraction of control) = 0.911.
Depletion of MYLK4 gave: viability robust z-score, siRNA alone 0.602; viability vs control, no drug (fraction of control) = 1.
Depletion of STYK1 gave: viability robust z-score, siRNA alone -0.914; viability vs control, no drug (fraction of control) = 0.842.
Silencing of BMPR1A gave: viability robust z-score, siRNA alone 0.602; viability vs control, no drug (fraction of control) = 1.
Silencing of PGK2 gave: viability robust z-score, siRNA alone 0.602; viability vs control, no drug (fraction of control) = 1.
Depletion of IPPK gave: viability robust z-score, siRNA alone -4.7 (active); viability vs control, no drug (fraction of control) = 0.449.
With knock-down of CDK20, the screen gave viability robust z-score, siRNA alone 0.602; viability vs control, no drug (fraction of control) = 1.
Knock-down of NEK6 came out at: viability robust z-score, siRNA alone 0.602; viability vs control, no drug (fraction of control) = 1.
After knock-down of FN1 the results were viability robust z-score, siRNA alone 0.602; viability vs control, no drug (fraction of control) = 1.
NME3 scored viability robust z-score, siRNA alone 0.602; viability vs control, no drug (fraction of control) = 1.
For ACVRL1 the deposit lists viability robust z-score, siRNA alone 0.602; viability vs control, no drug (fraction of control) = 1.
Against CKS1B, the entry reads viability robust z-score, siRNA alone -0.36; viability vs control, no drug (fraction of control) = 0.9.
Silencing of FLT1 resulted in: viability robust z-score, siRNA alone 0.602; viability vs control, no drug (fraction of control) = 1.
Knock-down of RPS6KA3 resulted in: viability robust z-score, siRNA alone -1.3; viability vs control, no drug (fraction of control) = 0.803.
With knock-down of ERBB4, the record shows viability robust z-score, siRNA alone 0.602; viability vs control, no drug (fraction of control) = 1.
PAK4 showed viability robust z-score, siRNA alone -0.736; viability vs control, no drug (fraction of control) = 0.861.
